# Reference: article PMC6915026
# The exact form of at least one protein or probe is not confirmed. No signal at the amounts used counts as a negative.
# Test system: amyloid-beta
# Assay: interdigitated electrode current change (aptamer-GNP immobilized)
# Conditions: ethanolamine-blocked surface, no significant current change; Aptamer-GNP on APTES-modified IDE, blocked with 1 M ethanolamine (30 min, RT); PBS listed as reagent, binding buffer, pH and temperature not stated; single-stranded DNA
sequence,measurement,value
ATAGTCCCATCATTCATTGTATGGTACGGCGCGGTGGCGGGTGCGTGGAGATATTAGCAAGTGTCA [antisynuclein aptamer],binding result,no binding
